Assay results taken from article PMC3429506, “Screening for Novel LRRK2 Inhibitors Using a High-Throughput TR-FRET Cellular Assay for LRRK2 Ser935 Phosphorylation” (PLoS ONE, 2012).

Amino acid sequences for entries named in this document (tags omitted).
UniProt Q5S007, whole entry G2019S: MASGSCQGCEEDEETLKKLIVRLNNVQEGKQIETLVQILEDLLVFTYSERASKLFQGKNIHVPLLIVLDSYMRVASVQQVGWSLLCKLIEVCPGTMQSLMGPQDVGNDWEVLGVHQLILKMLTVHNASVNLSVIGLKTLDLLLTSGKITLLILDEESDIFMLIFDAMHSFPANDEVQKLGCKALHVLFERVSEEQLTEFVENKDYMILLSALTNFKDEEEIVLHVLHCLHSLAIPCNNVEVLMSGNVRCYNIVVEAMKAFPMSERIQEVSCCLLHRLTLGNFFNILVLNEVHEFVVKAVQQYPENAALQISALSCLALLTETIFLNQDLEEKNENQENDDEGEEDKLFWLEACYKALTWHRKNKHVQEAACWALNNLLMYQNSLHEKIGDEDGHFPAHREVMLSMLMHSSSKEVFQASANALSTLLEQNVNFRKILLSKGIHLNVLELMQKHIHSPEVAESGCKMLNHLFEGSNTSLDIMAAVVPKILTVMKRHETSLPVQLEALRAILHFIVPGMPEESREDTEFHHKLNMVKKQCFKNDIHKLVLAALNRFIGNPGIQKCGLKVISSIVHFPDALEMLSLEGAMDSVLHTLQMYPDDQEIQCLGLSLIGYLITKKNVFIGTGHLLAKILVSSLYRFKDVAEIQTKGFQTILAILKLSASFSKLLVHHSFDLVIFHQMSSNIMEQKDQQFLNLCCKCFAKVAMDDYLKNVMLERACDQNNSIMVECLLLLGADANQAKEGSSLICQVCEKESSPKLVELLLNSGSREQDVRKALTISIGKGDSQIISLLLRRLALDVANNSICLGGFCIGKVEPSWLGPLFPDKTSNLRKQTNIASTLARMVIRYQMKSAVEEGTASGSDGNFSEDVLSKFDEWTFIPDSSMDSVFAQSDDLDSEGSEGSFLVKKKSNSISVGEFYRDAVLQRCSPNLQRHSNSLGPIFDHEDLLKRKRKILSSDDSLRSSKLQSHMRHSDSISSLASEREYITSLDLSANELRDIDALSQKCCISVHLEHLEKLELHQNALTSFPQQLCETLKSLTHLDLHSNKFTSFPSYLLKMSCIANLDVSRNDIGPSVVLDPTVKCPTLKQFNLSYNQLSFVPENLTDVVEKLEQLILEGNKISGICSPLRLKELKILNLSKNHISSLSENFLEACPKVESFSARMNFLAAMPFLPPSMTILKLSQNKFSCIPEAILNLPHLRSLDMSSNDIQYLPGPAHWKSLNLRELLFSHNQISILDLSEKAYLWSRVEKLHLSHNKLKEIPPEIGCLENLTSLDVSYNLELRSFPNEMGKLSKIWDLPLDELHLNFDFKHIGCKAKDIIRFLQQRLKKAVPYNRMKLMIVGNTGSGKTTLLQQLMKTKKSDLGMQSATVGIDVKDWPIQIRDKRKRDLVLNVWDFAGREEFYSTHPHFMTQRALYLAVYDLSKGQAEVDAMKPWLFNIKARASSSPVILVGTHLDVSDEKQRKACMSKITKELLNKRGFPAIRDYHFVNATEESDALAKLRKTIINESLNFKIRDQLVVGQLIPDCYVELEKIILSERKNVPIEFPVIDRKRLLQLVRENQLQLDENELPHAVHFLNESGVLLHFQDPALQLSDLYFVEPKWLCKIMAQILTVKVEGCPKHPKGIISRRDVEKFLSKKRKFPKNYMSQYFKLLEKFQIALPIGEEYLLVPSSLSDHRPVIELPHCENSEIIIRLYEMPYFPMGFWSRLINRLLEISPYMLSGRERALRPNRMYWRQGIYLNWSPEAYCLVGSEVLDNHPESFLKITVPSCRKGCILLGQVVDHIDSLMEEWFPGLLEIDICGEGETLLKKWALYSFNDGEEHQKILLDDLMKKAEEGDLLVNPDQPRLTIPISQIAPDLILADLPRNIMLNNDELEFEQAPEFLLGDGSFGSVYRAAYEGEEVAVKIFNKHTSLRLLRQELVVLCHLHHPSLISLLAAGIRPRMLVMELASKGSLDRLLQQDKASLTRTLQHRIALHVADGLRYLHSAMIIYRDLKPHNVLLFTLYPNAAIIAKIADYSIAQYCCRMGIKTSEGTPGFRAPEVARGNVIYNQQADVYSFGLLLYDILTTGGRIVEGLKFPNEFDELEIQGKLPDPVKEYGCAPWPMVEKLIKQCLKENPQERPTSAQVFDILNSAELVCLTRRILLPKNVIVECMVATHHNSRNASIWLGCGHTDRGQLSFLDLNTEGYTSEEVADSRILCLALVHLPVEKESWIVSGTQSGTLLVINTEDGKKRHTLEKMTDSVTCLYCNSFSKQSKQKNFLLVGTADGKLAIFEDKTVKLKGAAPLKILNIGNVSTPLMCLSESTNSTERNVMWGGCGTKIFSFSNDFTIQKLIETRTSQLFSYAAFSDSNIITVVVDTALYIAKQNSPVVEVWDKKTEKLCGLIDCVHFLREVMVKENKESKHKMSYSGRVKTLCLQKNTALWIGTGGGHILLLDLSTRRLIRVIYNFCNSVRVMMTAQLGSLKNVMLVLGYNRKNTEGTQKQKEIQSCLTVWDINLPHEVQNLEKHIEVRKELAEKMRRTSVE
UniProt Q5S007, whole entry A2016T/G2019S: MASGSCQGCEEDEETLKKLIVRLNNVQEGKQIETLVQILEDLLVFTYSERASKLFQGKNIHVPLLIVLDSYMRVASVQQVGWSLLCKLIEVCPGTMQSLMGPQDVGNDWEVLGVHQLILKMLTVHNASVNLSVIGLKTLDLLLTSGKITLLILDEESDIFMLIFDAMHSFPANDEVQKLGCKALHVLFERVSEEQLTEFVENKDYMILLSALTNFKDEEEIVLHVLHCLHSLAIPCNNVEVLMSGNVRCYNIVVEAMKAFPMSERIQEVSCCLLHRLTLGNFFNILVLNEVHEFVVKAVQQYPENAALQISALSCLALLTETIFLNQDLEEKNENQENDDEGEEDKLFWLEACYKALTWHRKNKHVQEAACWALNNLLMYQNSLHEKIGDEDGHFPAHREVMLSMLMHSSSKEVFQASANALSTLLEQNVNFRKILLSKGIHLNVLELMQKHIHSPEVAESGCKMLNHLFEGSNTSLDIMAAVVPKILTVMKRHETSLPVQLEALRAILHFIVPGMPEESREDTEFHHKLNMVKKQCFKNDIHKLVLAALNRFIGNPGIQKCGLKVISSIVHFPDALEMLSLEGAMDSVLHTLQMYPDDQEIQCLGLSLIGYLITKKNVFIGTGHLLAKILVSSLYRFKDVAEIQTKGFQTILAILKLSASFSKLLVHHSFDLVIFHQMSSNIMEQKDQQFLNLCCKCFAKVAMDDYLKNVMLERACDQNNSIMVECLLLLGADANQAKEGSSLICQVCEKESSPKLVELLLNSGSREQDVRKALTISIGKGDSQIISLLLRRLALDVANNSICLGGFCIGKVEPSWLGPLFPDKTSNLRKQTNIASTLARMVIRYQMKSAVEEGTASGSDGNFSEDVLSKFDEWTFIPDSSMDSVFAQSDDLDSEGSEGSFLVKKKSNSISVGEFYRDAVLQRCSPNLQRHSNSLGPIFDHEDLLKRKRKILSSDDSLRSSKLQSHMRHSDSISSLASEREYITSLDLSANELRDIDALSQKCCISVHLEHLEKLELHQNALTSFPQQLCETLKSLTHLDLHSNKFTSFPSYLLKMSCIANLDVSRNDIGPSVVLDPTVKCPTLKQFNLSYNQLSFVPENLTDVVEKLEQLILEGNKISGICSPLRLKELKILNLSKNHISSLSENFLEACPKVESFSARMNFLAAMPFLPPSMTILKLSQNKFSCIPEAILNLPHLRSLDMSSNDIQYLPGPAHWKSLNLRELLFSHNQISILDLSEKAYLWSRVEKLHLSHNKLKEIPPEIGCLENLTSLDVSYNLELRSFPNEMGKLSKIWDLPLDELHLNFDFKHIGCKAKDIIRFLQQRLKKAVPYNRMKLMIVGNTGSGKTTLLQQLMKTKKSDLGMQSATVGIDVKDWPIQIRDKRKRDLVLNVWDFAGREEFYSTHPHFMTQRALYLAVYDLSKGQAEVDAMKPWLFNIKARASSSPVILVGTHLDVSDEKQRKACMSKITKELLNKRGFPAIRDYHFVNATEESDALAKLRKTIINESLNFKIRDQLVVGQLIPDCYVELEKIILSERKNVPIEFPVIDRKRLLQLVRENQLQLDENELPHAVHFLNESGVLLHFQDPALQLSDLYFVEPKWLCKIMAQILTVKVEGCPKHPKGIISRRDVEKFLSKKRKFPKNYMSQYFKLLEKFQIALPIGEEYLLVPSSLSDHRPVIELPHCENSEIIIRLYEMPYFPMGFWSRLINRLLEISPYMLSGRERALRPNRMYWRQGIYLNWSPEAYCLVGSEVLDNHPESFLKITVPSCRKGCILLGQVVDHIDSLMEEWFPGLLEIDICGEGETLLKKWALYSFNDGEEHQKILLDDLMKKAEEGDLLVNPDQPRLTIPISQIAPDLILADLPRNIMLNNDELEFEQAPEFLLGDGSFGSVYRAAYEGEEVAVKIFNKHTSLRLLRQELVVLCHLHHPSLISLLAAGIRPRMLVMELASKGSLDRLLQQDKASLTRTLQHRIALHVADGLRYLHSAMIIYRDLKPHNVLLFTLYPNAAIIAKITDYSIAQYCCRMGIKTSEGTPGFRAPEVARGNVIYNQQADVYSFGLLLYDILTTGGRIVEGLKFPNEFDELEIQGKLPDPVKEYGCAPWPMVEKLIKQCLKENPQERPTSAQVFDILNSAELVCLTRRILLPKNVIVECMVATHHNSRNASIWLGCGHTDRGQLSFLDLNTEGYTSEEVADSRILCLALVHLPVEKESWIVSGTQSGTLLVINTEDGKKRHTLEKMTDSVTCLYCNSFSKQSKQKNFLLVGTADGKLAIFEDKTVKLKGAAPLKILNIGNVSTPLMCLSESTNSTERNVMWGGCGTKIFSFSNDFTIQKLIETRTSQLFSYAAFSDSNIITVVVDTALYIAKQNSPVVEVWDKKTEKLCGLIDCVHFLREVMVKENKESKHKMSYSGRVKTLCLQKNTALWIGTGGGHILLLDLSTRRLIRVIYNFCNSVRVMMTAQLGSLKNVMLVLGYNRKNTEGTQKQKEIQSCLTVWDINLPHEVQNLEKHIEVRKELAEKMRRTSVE

Columns and labels:
Assay type in all cases: cell-based
GFP-LRRK2 G2019S = target: T1, GFP-LRRK2 G2019S (Homo sapiens, UniProt Q5S007, G2019S); assay: Immunoprecipitation/Western analysis of LRRK2 phosphorylation at Ser910, Ser935, Ser955, Ser973 in HEK293 T-REx GFP-LRRK2 G2019S cells
T1 construct: expressed in transfected cells
Description: (§1) Immunoblot analysis: BacMam LRRK2-GFP transduced U-2 OS or SH-SY5Y cells (10^7 cells) were left untreated or treated with 3 µM LRRK2-IN-I for 90 min. For lysate preparation, the cells were washed once with ice-cold PBS and lysed by addition of ice-cold lysis buffer (20 mM Tris-HCl, pH 7.4, 1% NP-40, 5 mM EDTA, 5 mM NaF, 150 mM NaCl, and 1∶100 of protease and phosphatase inhibitor cocktails). The lysate was cleared of debris by centrifugation. Equal amount of total protein was loaded onto each lane for SDS-PAGE (3–8% Tris Acetate). The proteins were transferred onto nitrocellulose membrane using the iBLOT® dry blotting system (Life Technologies) according to manufacturer’s protocol. The membranes were blocked and incubated with a primary antibody against LRRK2 (Cell Signaling Technologies), followed by incubation with alkaline phosphatase-conjugated secondary antibody (WesternBreeze® chromogenic Kit, Life Technologies). The blot was developed by using the chromogenic BCIP/NBT substrate (WesternBreeze® chromogenic Kit, Life Technologies). Immunoprecipitation analysis: HEK293 cells were induced to express GFP-LRRK2 G2019S by inclusion of doxycycline in the culture media at 1 µg/mL. Two days post induction, cells were treated for 90 minutes in the presence of 20 µM of compound or DMSO vehicle control. […]

LRRK2 A2016T/G2019S = target: T2, LRRK2 A2016T/G2019S (Homo sapiens, UniProt Q5S007, A2016T/G2019S); assay: Immunoprecipitation/Western analysis of LRRK2 phosphorylation in T-REx HEK293 cells expressing inhibitor desensitizing mutant; details: 20 µM, Figure 6 IRM
T2 construct: expressed in transfected cells
Description: as §1

LRRK2 G2019S = LRRK2 G2019S (Homo sapiens, UniProt Q5S007, G2019S); assay: TR-FRET cellular assay for LRRK2 Ser935 phosphorylation, SH-SY5Y cells, BacMam LRRK2-GFP G2019S (incl. Tocriscreen Mini library screen and follow-up); design: This high-throughput assay utilizes cells expressing full-length human LRRK2 with a C-terminal GFP tag (LRRK2-GFP); host or cells: SH-SY5Y cells transduced with BacMam
Description: U-2 OS cells are maintained in growth medium (McCoy’s 5A supplemented with 10% dialyzed FBS (dFBS), 10 mM HEPES, 0.1 mM NEAA, 1 mM Sodium Pyruvate, and 100 U/mL Penicillin/100 µg/mL Streptomycin). HEK293T cells are maintained in DMEM with 10% dFBS, 10 mM HEPES, 0.1 mM NEAA and 100 U/mL Penicillin/100 µg/mL Streptomycin. SH-SY5Y cells are maintained in DMEM/F-12 medium supplemented with 10% dFBS and 100 U/mL Penicillin/100 µg/mL Streptomycin. […] GIBCO® human neural stem cells (hNSCs) were propagated as an adherent culture in StemPro® NSC SFM according to the manufacturer’s recommended protocol (Life Technologies). […]
Transduced cells in the 384-well assay plate were incubated with indicated inhibitors (5X, 5 µL/well) for 60 to 90 minutes. […] Z′-factor values were calculated as: Z′-factor = 1 - [(3 × stdevno virus +3 × stdevmaxvirus)/(avgmaxvirus – avgno-virus)]. […]
40 nL of 10 mM Tocris library compounds in DMSO were dispensed into each well of the assay plate by the ECHO system. […] The percent inhibition is calculated as: [(average emission ratios of DMSO control wells – average emission ratios of compound wells)/(average emission ratios of DMSO control wells – average emission ratios of LRRK2-IN-1 treated wells)] * 100. […] Z′-factor value was calculated as: Z′-factor = 1 - [(3 × stdevLRRK2-IN-1+3 × stdevDMSO)/(avgDMSO – avgLRRK2-IN-1)]. […]

O=C1NC(=O)c2c1c(-c1ccccc1)cc1[nH]c3ccc(O)cc3c21 [PD 407824]
effect on phosphorylation of Ser910, Ser935, Ser955 and Ser973 (IP-Western) (GFP-LRRK2 G2019S): inhibited phosphorylation of Ser910, Ser935, Ser955 and Ser973
effect of desensitizing mutation A2016T/G2019S on compound-induced dephosphorylation (IP-Western) (LRRK2 A2016T/G2019S): did not show decreased sensitivity
Cellular TR-FRET Assay Max % Inhibition (LRRK2 G2019S): 65%
%Inhibition Initial screen (LRRK2 G2019S; 20 µM): 67.3%
